Measured values reported in paper PMC4617965.
Read-outs that look alike come from different tables or passages of the source. These are yes or no findings as the source states them, for the method shown. In cells and extracts the contact can be indirect. Here binding means that the protein was enriched with, or labelled near, the bait; the list need not be complete. Values belong to the molecule of their own block, whether it stands above or below them.

Amino acid sequences for entries named in this document (tags omitted). A change or cut given only in a name is not applied to a line headed by its entry. Chains listed by the source or under a name are the forms on record and can include a tag or linker.
UniProt Q24562: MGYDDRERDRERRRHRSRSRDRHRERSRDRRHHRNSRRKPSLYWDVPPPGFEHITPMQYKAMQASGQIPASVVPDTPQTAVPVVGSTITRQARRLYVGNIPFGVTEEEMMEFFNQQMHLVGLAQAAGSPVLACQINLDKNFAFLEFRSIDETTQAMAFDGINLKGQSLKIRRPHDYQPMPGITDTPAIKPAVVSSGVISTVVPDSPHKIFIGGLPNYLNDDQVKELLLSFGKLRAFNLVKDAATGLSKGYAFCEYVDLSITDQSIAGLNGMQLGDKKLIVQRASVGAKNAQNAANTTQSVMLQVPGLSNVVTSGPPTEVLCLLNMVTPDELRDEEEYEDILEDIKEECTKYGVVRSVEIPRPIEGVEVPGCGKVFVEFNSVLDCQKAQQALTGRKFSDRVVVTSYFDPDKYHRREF
B52 (P26686, form named): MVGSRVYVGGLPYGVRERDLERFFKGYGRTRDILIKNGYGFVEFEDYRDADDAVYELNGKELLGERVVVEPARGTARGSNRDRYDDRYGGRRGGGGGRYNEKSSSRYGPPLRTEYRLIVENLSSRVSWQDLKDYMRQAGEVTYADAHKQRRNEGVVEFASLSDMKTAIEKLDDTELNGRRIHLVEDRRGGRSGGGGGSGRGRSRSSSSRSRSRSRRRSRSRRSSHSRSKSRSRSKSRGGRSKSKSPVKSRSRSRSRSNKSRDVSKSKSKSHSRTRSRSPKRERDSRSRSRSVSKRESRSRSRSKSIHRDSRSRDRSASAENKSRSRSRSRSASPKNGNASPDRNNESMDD
UniProt Q9VEP9: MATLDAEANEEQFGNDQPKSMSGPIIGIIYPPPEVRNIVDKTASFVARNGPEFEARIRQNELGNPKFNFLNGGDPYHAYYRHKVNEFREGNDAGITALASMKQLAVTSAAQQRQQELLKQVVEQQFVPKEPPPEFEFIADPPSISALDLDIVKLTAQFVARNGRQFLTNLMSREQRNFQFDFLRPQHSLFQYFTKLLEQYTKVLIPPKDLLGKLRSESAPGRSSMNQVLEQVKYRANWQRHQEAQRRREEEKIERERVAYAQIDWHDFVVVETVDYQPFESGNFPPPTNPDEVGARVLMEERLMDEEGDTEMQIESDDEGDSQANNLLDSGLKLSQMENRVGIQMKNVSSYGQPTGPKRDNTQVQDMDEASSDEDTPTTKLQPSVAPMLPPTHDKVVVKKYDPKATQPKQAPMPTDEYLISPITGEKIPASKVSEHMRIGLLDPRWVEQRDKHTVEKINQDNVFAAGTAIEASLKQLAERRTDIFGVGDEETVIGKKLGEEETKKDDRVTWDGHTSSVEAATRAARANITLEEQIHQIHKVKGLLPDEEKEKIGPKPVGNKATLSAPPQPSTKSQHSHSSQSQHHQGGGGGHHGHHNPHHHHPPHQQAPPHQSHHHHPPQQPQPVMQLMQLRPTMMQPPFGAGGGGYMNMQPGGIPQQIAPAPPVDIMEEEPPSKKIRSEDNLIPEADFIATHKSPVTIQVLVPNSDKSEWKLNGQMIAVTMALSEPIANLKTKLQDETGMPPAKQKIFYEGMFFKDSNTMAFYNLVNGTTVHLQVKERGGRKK
UniProt Q9VAX8: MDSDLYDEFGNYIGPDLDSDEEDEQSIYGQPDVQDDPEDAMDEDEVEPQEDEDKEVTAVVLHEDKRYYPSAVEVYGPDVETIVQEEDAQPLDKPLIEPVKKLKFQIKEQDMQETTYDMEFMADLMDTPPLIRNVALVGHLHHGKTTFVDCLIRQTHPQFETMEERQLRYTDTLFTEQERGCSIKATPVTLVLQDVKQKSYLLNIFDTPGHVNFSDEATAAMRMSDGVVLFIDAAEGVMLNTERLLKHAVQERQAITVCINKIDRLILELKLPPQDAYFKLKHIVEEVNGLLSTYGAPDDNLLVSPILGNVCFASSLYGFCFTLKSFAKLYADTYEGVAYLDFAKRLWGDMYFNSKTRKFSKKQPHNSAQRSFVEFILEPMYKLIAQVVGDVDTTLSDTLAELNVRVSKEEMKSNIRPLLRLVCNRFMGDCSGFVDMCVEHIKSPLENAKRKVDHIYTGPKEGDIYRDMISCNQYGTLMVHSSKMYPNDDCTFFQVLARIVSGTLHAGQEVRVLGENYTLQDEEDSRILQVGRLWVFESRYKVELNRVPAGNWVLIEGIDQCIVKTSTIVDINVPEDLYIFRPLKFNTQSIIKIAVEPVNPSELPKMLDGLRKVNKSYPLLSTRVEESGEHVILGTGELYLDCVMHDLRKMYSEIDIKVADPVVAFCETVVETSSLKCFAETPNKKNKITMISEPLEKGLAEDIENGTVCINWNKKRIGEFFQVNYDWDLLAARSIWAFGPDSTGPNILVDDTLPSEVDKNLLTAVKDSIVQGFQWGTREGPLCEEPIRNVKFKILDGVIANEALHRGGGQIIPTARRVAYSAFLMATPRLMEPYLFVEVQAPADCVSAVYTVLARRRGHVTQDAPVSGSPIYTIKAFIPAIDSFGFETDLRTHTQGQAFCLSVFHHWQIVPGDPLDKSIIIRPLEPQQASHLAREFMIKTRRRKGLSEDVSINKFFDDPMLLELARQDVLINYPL

How the values were obtained:
Experiment in all cases: affinity purification with mass spectrometry; C-terminal Flag-HA bait transiently expressed in S2R+ cells; clarified lysate with RNase inhibitors, no crosslinking; single-step anti-HA purification, extensive washes, release by competition; LC/MS/MS; biological duplicate
[1] = molecular target: T1, PS (Drosophila melanogaster)
T1 sequence: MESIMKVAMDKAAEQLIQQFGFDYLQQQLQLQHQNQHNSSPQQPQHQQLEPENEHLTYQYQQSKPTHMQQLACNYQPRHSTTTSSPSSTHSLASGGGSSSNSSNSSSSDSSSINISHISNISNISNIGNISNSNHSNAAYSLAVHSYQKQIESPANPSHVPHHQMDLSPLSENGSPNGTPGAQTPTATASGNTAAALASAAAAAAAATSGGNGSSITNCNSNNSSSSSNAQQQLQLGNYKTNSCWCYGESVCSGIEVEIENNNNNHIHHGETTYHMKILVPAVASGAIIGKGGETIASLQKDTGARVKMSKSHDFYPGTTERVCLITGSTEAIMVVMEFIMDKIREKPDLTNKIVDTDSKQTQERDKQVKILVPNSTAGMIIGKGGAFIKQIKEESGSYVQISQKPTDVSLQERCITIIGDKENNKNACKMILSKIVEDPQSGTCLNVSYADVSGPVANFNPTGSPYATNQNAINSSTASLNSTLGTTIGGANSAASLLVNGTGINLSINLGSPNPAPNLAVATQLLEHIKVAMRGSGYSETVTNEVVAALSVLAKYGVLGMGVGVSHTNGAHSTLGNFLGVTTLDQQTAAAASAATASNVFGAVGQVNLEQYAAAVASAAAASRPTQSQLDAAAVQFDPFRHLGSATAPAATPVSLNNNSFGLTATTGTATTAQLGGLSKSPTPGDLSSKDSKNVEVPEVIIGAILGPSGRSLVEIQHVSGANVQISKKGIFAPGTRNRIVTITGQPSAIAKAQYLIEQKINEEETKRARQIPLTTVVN

[2] = molecular target: U2AF50 (Drosophila melanogaster) (UniProt Q24562)
[3] = molecular target: B52 (Drosophila melanogaster) (UniProt P26686)
[4] = molecular target: B52 (Drosophila melanogaster) (UniProt P26686); remark: listed apart in the source
[5] = molecular target: SYP (Drosophila melanogaster)

Molecule: CG16941 (from UniProt Q9VEP9)
binding [2]: binds
binding [3]: binds

Molecule: CG4849 protein (from UniProt Q9VAX8)
binding [3]: binds

B1: CG13900 (protein, UniProt Q9W0M7 1-1227)
chain: MYLYNLTLQKATGVTHAVHGNFSGGKQQEVLLSRGKSLELLRPDSNTGKVHTLLSTEIFGCVRALMAFRLTGGTKDYIVVGSDSGRIVILEYNPSKNALEKVHQETFGKSGCRRIVPGQYFAIDPKGRAVMIGAVEKQKLAYIMNRDTQARLTISSPLEAHKSNTLTYHMVGVDVGFDNPMFACLEIDYEEADMDPSGDAAQRTQQTLTFYELDLGLNHVVRKYSEPLEEHANFLVSVPGGNDGPSGVLICSENYLTYKNLGDQHDIRCPIPRRRNDLDDPERGMIFICSATHRTKSMYFFLLQTEQGDIFKITLETDDDVVSEIKLKYFDTVPPATAMCVLKTGFLFVASEFGNHYLYQIAHLGDDDDEPEFSSAMPLEEGETFFFAPRALKNLVLVDELPSFAPIITSQVADLANEDTPQLYVLCGRGPRSTLRVLRHGLEVSEMAVSELPGNPNAVWTVKKRADDEFDAYIIVSFVNATLVLSIGETVEEVTDSGFLGTTPTLCCAALGDDALVQVYPDGIRHIRSDKRVNEWKAPGKKSITKCAVNQRQVVITLSGRELVYFEMDPTGELNEYTERSEMPAEIMCMALGTVPEGEQRSWFLAVGLADNTVRILSLDPNNCLTPCSMQALPSPAESLCLVEMGHTESTTQGGLDDDAPAQRSGNNKGTIYLNIGLSNGVLLRTVLDPVSGDLADTRTRYLGSRPVKLFRIKMQGSEAVLAMSSRTWLSYYHQNRFHLTPLSYETLEYASGFSSEQCSEGIVAISTNTLRILALEKLGAVFNQVAFPLQYTPRTFVIHPDTGRMLIAETDHNAYTEDTKSARKEQMAEEMRSAAGDEERELAREMANAFINEVLPEDVFSSPKAGLGLWASQIRCLDAMHGQTMFSVPLTQNEAIMSMAMLKFSIAADGRYYLAVGIAKDLQLNPRISQGGCIDIYKIDPTCSSLEFMHRTDIDEIPGALCGFQGRLLAGCGRMLRIYDFGKKKMLRKCENKHIPYQIVNIQAMGHRVYVSDVQESVFFIRYRRAENQLIIFADDTHPRWVTATTLLDYDTIAIADKFGNLSIQRLPHSVTDDVDEDPTGTKSLWDRGLLSGASQKSENICSFHVGEIIMSLQKATLIPGGSEALIYATLSGTVGAFVPFTSREDYDFFQHLEMHMRNENPPLCGRDHLSYRSSYYPVKNVLDGDLCEQYLSIEAAKQKSIAGDMFRTPNQICKKLEDIRTRYAF
binding [4]: binds

Now from value to molecule:

binding [1]: binds
Molecule: MSI (Drosophila melanogaster)

binding [5]: binds
B2: HOW (protein, UniProt O01367 1-405)
chain: MSVCESKAVVQQQLQQHLQQQAAAAVVAVAQQQQAQAQAQAQAQAQQQQQAPQVVVPMTPQHLTPQQQQQSTQSIADYLAQLLKDRKQLAAFPNVFTHVERLLDEEIARVRASLFQINGVKKEPLTLPEPEGSVVTMNEKVYVPVREHPDFNFVGRILGPRGMTAKQLEQETGCKIMVRGKGSMRDKKKEDANRGKPNWEHLSDDLHVLITVEDTENRATVKLAQAVAEVQKLLVPQAEGEDELKKRQLMELAIINGTYRDTTAKSVAVCDEEWRRLVAASDSRLLTSTGLPGLAAQIRAPAAAPLGAPLILNPRMTVPTTAASILSAQAAPTAAFDQTGHGMIFAPYDYANYAALAGNPLLTEYADHSVGAIKQQRRLATNREHPYQRATVGVPAKPAGFIEIQ
